The assay has as its system PAF-induced platelet aggregation. Kind of assay: Platelet aggregation assay (PAF-induced aggregation of human platelet-rich plasma). As to conditions: 2 min, human PRP, PAF 1-5×10^-8 M, 37° C., 2 min. incubation, read-out: PAF Antagonism (in vitro) IC50. In kind it is cell-based. As to the method:
Platelet-activating factor (PAF) causes aggregation of platelets by a receptor-mediated mechanism. Therefore, PAF-induced platelet aggregation provides a simple and convenient assay to screen compounds for PAF antagonism.
Blood was centrifuged at 110×g for 15 min. and the supernatant platelet-rich plasma (PRP) carefully transferred into a polypropylene tube. Platelet-poor-plasma (PPP) was prepared by centrifuging PRP at 12,000×g for 2 min. (Beckman Microfuge B). PRP was used within 3 hr. of drawing the blood.
PAF was dissolved in chloroform:methanol (1:1, v/v) at a concentration of 2 mg/ml and stored at -70° C. An aliquot of this solution was transferred to a polypropylene tube and dried under a flow of nitrogen gas. […] This stock solution was further diluted to appropriate concentrations in Hepes-saline-BSA buffer. Collagen (Sigma) and adenosine diphosphate (ADP) (Sigma) were purchased as solutions. Test compounds were initially dissolved in dimethyl sulfoxide (DMSO) at a concentration of 50 mM and then further diluted in Hepes-saline-BSA buffer to achieve appropriate concentrations.
When an aggregating agent such as PAF is added to PRP, platelets aggregate. An aggregometer quantifies this aggregation by measuring and comparing light (infra-red) transmission through PPP and PRP. […]

Broadly, the IC50 is the concentration at which inhibition is half-maximal. Take `CCOC(=O)N1CCC(=C2c3ccc(Cl)cc3CCc3cccnc32)CC1` [Compound 1]: the IC50 is 175 µM.
